Results taken from PubChem BioAssay AID1347076 (National Center for Advancing Translational Sciences (NCATS), 2019).
Among all 400,000 compounds or so, about 13,000 (3.2%) were called active. Inconclusive means that the source gave no clear call. Such entries were picked first, then a sample of the others. Calls follow the shape of the dose curve; as a rule, active = well fitted cell-killing curve with a large enough effect; inconclusive = small, poorly fitted or top-dose-only effect, or effect the other way; inactive = flat fitted curve, though single readings scatter. Potencies beside an inconclusive call are fits to weak or partial responses and may not hold up. Some structures have more than one record in an assay (separate samples or runs), and their calls can disagree.
% is scaled to controls: 0 for no effect and ±100 for the full control effect; potency is read from the fitted curve at half-maximal effect.

Test: qHTS assay for MDR1-selective chemotherapeutics: Primary screen using the drug-selected MDR subline cells KB-V1; also: nearly all actives have a fitted effect of over 60% in size
Conditions: KB-V1 MDR cells viability, CellTiter-Glo, 72 h; activity change, negative = cytotoxicity: at 46.1 µM (top of the series)
Outline: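 Cytotoxicity via CellTiter-Glo luminescence after 72 h compound exposure at 37 degrees C. Cells: drug-selected KB-V1 line, DMEM phenol-red free plus 10% FBS. Compounds tested at multiple concentrations; normalized data fitted to concentration-effect curves.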
In the case of Cc1cccc2sc(NC(=O)C3c4ccccc4Oc4ccccc43)nc12, the Potency is reported as inconclusive: 16.4 µM [cytotoxic, single point].
With Cc1cc(C)cc(C(=O)N(NC(=O)Nc2ccc(Cl)cc2)C(C)(C)C)c1 the Potency was inconclusive: 16.4 µM [cytotoxic, single point].
For O=C(CN1CCN(c2ccc(F)cc2)CC1)Nc1ccc(S(=O)(=O)N2CCOCC2)cc1, the “activity change, negative = cytotoxicity” value was inactive: -12.2%.
With Clc1ccc(-n2nnnc2SCc2c(-c3ccccc3)nc3sccn23)cc1 the Potency was inconclusive: 20.6 µM [cytotoxic, partial curve].
With CN(C)CCCNC(=O)C[C@H]1C[C@H](C(=O)N2CCCCC2)[C@@]2(CCc3ccccc3)c3[nH]c4cc(-c5ccco5)ccc4c3CCN2C1=O the Potency was inconclusive: 20.6 µM [rising, single point].
With Cc1ccc(Cl)cc1NC(=O)CN1C(=O)C(C)(C)c2cc(S(=O)(=O)N3CCCCC3)ccc21 the Potency was inconclusive: 2.06 µM [cytotoxic, full curve].
In the case of NC(=O)CN1N=C(c2cc(Cl)sc2Cl)CSC1=O, the “activity change, negative = cytotoxicity” value is reported as inactive: 0.441%.
With CN(C)c1ccc(/C=C(/NC(=O)c2ccccc2)C(=O)N2CCCC2)cc1 the Potency was inconclusive: 18.4 µM [cytotoxic, single point].
In the case of C=CCSc1nc2c(c(=O)[nH]c(=O)n2C)n1C/C=C(/C)Cl, the Potency is reported as active: 13 µM.
With O=C(Nc1cccnc1)C12CC3CC(CC(C3)C1)C2 the “activity change, negative = cytotoxicity” value was inactive: 0.151%.
With FC(F)(F)c1cc(-c2ccccc2)nc(NCc2cccnc2)n1 the Potency was inconclusive: 29.1 µM [cytotoxic, single point].
With COc1ccc(C2CC(=O)Oc3cc4c(cc32)OCO4)cc1 (configuration not stated) the “activity change, negative = cytotoxicity” value was inactive: -3.72%.
For C#CCOCCOCCOCCNc1nc(N2CCN(C(=O)[C@H](CCC(=O)O)n3cc(C(N)Cc4ccc(O)cc4)nn3)CC2)nc(N2CCN(C(=O)[C@H](Cc3cc4ccccc4[nH]3)n3cc(C(N)[C@H](C)CC)nn3)CC2)n1 (some centres not stated), the Potency was inconclusive: 29.1 µM [rising, single point].
In the case of CN(C)S(=O)(=O)c1ccc2nc(NC(=O)c3cccs3)sc2c1, the Potency is reported as inconclusive: 23.1 µM [cytotoxic, single point].
For COc1cc(/C=C(\C#N)C(=O)Nc2ccccc2F)ccc1OCCN1CCOCC1, the “activity change, negative = cytotoxicity” value was inactive: 0.986%.
With COc1cccc(OC(=O)CSc2nnc(-c3ccc4c(c3)OCO4)o2)c1 the “activity change, negative = cytotoxicity” value was inactive: 17.7%.
With COc1ccc(N2CCN(S(=O)(=O)c3cc4c(cc3C)N(C(C)=O)CCO4)CC2)cc1 the “activity change, negative = cytotoxicity” value was inactive: 12.1%.
With CCOc1ccccc1NC(=O)C(C)N(c1ccccc1)S(C)(=O)=O (configuration not stated) the “activity change, negative = cytotoxicity” value was inactive: -8.4%.
With Cc1cccc(Cc2c(C)nc3nc(SCC(=O)NCc4ccco4)nn3c2C)c1 the Potency was inconclusive: 29.1 µM [cytotoxic, single point].
For Cc1ccc(/C=C2\Sc3ccccc3C2=O)s1, the “activity change, negative = cytotoxicity” value was inactive: 13%.
For COc1ccc2[nH]c(C)c(C(=O)CNc3nccs3)c2c1, the “activity change, negative = cytotoxicity” value was inactive: 14.9%.
In the case of CCOC(=O)c1ccc(OC(=O)c2cn(-c3cccc(OC)c3)c(=O)c3ccccc23)cc1, the “activity change, negative = cytotoxicity” value is reported as inactive: 27.1%.
For O=C(O)c1ccc(NC2=C/C(=N/S(=O)(=O)c3ccccc3)c3ccccc3C2=O)cc1, the Potency was inconclusive: 29.1 µM [cytotoxic, single point].
For O=C(N/N=C\c1cccc(Cl)c1)c1ccc(Cn2cc(Br)c([N+](=O)[O-])n2)o1, the Potency was active: 20.6 µM.
For Cc1ccc(Cn2c(=S)[nH]c3ccc(N4CCOCC4)cc3c2=O)o1, the Potency was inconclusive: 29.1 µM [cytotoxic, single point].
With CCOC(=O)N1CCN(Cc2nc(N)nc(Nc3ccc(OC)cc3)n2)CC1 the “activity change, negative = cytotoxicity” value was inactive: -0.238%.
With C/C(=N\NC(=O)CSCc1ccc([N+](=O)[O-])cc1)c1ccccc1O the Potency was active: 20.6 µM.
With COc1cc(SC)ccc1C(=O)Nc1ccc2c(c1)OCO2 the Potency was inconclusive: 6.51 µM [cytotoxic, partial curve, poor fit].
For Cc1cc(C)c2sc(N(CCCN(C)C)C(=O)COc3ccc(Cl)cc3)nc2c1, the Potency was inconclusive: 29.1 µM [cytotoxic, single point].
With CC(C)(C)c1ccc(CC(=O)N2CCC2(C)C(=O)Nc2cccc3cccnc23)cc1 (configuration not stated) the “activity change, negative = cytotoxicity” value was inactive: -0.392%.
In the case of CCOc1ccc(NS(=O)(=O)c2ccc3[nH]cc(C(=O)NCC4CCCO4)c(=O)c3c2)cc1 (configuration not stated), the Potency is reported as inconclusive: 18.4 µM [rising, partial curve, poor fit] and the activity change, negative = cytotoxicity is reported as inconclusive: 31.5%.
For CS(=O)(=O)N1CCc2cc(-c3csc(NCC4CCCO4)n3)ccc21 (configuration not stated), the Potency was inconclusive: 20.6 µM [cytotoxic, single point].
In the case of Nc1[nH]nc2nc3ccccc3cc12, the Potency is reported as inconclusive: 18.4 µM [cytotoxic, single point].
In the case of Cc1ccc(C(=O)OCC(=O)Nc2nc(-c3ccccc3)cs2)cc1NC(=O)c1ccco1, the Potency is reported as inconclusive: 18.4 µM [cytotoxic, single point].
For COc1ccc(NCc2cc3ccc(OC)cc3n(CC(=O)Nc3cc(Cl)ccc3C)c2=O)cc1, the Potency was inconclusive: 4.61 µM [cytotoxic, partial curve].
In the case of Cc1cc(C)c(C#N)c(SCc2ccc(F)cc2)n1, the Potency is reported as inconclusive: 29.1 µM [rising, partial curve, poor fit].
For Cc1ccccc1Oc1cc(NC(=O)CCCn2nc(C)c([N+](=O)[O-])c2C)cc([N+](=O)[O-])c1, the Potency was active: 3.26 µM.
For FC(F)C(F)(F)C(F)(F)C(F)(F)c1cc(-c2ccccc2)n[nH]1, the Potency was inconclusive: 20.6 µM [cytotoxic, single point].
With CCCCC(=NCCc1c(C)[nH]c2ccccc12)C1=C(O)CC(c2ccccc2)CC1=O (configuration not stated) the Potency was active: 9.2 µM.
For Cn1c(=O)c2c(ncn2Cc2ccc(Cl)c(Cl)c2)n(C)c1=O, the Potency was active: 2.59 µM.
With Cc1ccc(/C=C/c2nc3ccccc3[nH]2)o1 the Potency was inconclusive: 20.6 µM [cytotoxic, partial curve].
In the case of COCCn1c(C)cc(C(=O)COc2cccnc2[N+](=O)[O-])c1C, the Potency is reported as inconclusive: 29.1 µM [cytotoxic, single point].
In the case of O=C(CSc1ccc2nnc(-c3cccnc3)n2n1)c1ccccc1, the “activity change, negative = cytotoxicity” value is reported as inactive: -2.68%.
With CNC(=O)c1cccc(NC(=O)c2ccccc2OCc2ccccc2)c1 the “activity change, negative = cytotoxicity” value was inactive: -16.2%.
For Nc1ccc(C(=O)O)c(O)c1, the Potency was “inactive”.
For Cc1cc(C)n2nc(SCCOc3ccccc3)nc2n1, the Potency was inconclusive: 13 µM [cytotoxic, partial curve].
In the case of CC(=O)Nc1ccc(S(=O)(=O)NC2CC(=O)N(c3ccc4c(c3)OCCO4)C2)cc1 (configuration not stated), the “activity change, negative = cytotoxicity” value is reported as inactive: 20.5%.
With COc1cccc(NC(=O)CCc2nnc3ccc(N4CCN(c5cccc(OC)c5)CC4)nn23)c1 the Potency was inconclusive: 29.1 µM [rising, single point].
For CCN(Cc1ccccc1)S(=O)(=O)c1ccc(C(=O)N2CCN(c3nc4ccccc4s3)CC2)cc1, the Potency was inconclusive: 1.64 µM [cytotoxic, full curve].
With COc1ccc(OC)c(NC(=O)CSc2nnc(C)n2Cc2ccccc2)c1 the Potency was inconclusive: 29.1 µM [cytotoxic, single point].
In the case of Nc1cc(=O)[nH]c(=O)n1CCc1ccccc1, the Potency is reported as inconclusive: 29.1 µM [rising, single point].
With COCC(=O)Nc1ccc(Br)cc1C the Potency was inconclusive: 29.1 µM [rising, single point].
For CC1=C(C(=O)Nc2ccc(C)cc2C)C(c2ccccc2F)n2nc(SCC(=O)c3ccc(C)cc3)nc2N1 (configuration not stated), the Potency was inconclusive: 14.6 µM [rising, single point].
With Cn1ccnc1C(O)c1ccccc1 (configuration not stated) the “activity change, negative = cytotoxicity” value was inactive: -18.3%.
With COc1cccc(-c2ccc(SCc3ccccn3)nn2)c1 the Potency was inconclusive: 13 µM [cytotoxic, partial curve].
For Cc1ccc(Cl)c(OCCCCN(C)Cc2ccccc2)c1, the Potency was active: 20.6 µM.
For CCN(CC)C(=O)CSc1nc2sc(C)c(C)c2c(=O)[nH]1, the Potency was inconclusive: 29.1 µM [cytotoxic, single point].
With CCC(=O)N(CCC(Cc1ccccc1)c1ccc2c(c1)OCO2)Cc1ccccc1F (configuration not stated) the Potency was inconclusive: 7.31 µM [cytotoxic, partial curve, poor fit].
In the case of CCN(Cc1ccccc1)C(=O)c1cccc(S(=O)(=O)N2CCN(c3ccc(F)cc3)CC2)c1, the Potency is reported as inconclusive: 5.8 µM [cytotoxic, full curve].
In the case of CC(C)(C)C(=O)COC(=O)c1cc(-c2cccnc2)nc2ccccc12, the “activity change, negative = cytotoxicity” value is reported as inactive: 0%.
With O=C(CCn1c(=O)oc2ccccc21)N1CCN(c2ccccc2Cl)CC1 the Potency was active: 4.11 µM.
For COc1cc(-c2cnc3c(NC=O)cc(-c4cccc(C(F)(F)F)c4)cn23)cc(OC)c1OC, the Potency was active: 23.1 µM.
For O=C(Nc1ccc(-c2csc(Nc3cccc(C(F)(F)F)c3)n2)cc1)c1cc([N+](=O)[O-])cc(C(F)(F)F)c1, the Potency was inconclusive: 23.1 µM [cytotoxic, single point].
In the case of CCN(CC)S(=O)(=O)c1ccc(N(C)C)c(NC(=O)CC(NC(C)=O)c2ccccc2)c1 (configuration not stated), the “activity change, negative = cytotoxicity” value is reported as inactive: -13.2%.
In the case of O=S1(=O)N=C(Oc2cccc3ccccc23)c2ccccc21, the Potency is reported as “inactive”.
In the case of CCOC(=O)NCN1C(=O)C2C3C=CC(C3)C2C1=O (configuration not stated), the “activity change, negative = cytotoxicity” value is reported as inactive: 1.82%.
For O=C(NC(=S)NNC(=O)c1ccccc1O)c1cccnc1, the Potency was inconclusive: 20.6 µM [cytotoxic, single point].
With C=CCn1c(Cc2cccs2)nnc1SCC(=O)Nc1cc(OC)cc(OC)c1 the Potency was inconclusive: 8.2 µM [cytotoxic, single point].
With O=[N+]([O-])c1cc2c(cc1Br)-c1ccccc1C2 the Potency was inconclusive: 18.4 µM [cytotoxic, single point].
With CN(C)c1ccc(-c2c(-c3ccc4c(c3)OCO4)noc2-c2ccsc2)cn1 the Potency was active: 10.3 µM.
In the case of CCOc1ccccc1N(CC(=O)NCCSc1ccccc1)S(C)(=O)=O, the Potency is reported as inconclusive: 29.1 µM [cytotoxic, partial curve, poor fit].
